Data as given in PMC4849774.
These are yes or no findings as the source states them, for the method shown. In cells and extracts the contact can be indirect. Some entries that bind do so weakly or less than the wild type. Tags and fused reporters may be left off the sequences shown.

By UniProt entry, the sequences of proteins in these tests, tags left out.
UniProt Q921F2: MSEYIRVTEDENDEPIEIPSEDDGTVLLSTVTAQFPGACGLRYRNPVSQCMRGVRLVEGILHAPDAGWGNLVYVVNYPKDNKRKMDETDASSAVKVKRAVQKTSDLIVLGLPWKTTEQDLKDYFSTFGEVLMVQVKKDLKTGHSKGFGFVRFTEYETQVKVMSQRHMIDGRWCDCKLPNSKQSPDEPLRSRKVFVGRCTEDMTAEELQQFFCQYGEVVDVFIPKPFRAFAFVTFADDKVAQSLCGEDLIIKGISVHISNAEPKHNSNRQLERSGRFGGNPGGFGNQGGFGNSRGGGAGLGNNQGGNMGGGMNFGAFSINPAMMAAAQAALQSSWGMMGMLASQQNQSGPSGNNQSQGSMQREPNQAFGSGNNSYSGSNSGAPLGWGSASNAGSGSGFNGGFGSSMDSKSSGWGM

How the values were obtained:
Myc-USP7 (human), Q93009 = assay: co-IP; NIH3T3 cells expressing FLAG-CRY2 and/or Myc-USP7, 10 uM MG132 for 6 hours, IP Buffer (137 mM NaCl, 1% Triton X-100, pH 7.8), anti-FLAG or anti-Myc antibody, Protein G-Sepharose, 4°C; normal mouse IgG as negative control; conditions: remark: other sources report otherwise
FLAG-TDP-43 (mouse) = FLAG-TDP-43 (mouse) (UniProt Q921F2); assay: co-IP; HEK293 cells expressing FLAG-CRY2, or Myc-CRY2 and/or FLAG-TDP-43, lysed with IP Buffer, immunoprecipitation with anti-FLAG antibody, western blotting

binding (Myc-USP7 (human), Q93009) | binding (FLAG-TDP-43 (mouse)) | Binder
binds |  | FLAG-CRY2 (in NIH3T3 cells), Q9R194 1-592 (protein) MAAAAVVAATVPAQSMGADGASSVHWFRKGLRLHDNPALLAAVRGARCVRCVYILDPWFAASSSVGINRWRFLLQSLEDLDTSLRKLNSRLFVVRGQPADVFPRLFKEWGVTRLTFEYDSEPFGKERDAAIMKMAKEAGVEVVTENSHTLYDLDRIIELNGQKPPLTYKRFQALISRMELPKKPAVAVSSQQMESCRAEIQENHDDTYGVPSLEELGFPTEGLGPAVWQGGETEALARLDKHLERKAWVANYERPRMNANSLLASPTGLSPYLRFGCLSCRLFYYRLWDLYKKVKRNSTPPLSLFGQLLWREFFYTAATNNPRFDRMEGNPICIQIPWDRNPEALAKWAEGKTGFPWIDAIMTQLRQEGWIHHLARHAVACFLTRGDLWVSWESGVRVFDELLLDADFSVNAGSWMWLSCSAFFQQFFHCYCPVGFGRRTDPSGDYIRRYLPKLKGFPSRYIYEPWNAPESVQKAAKCIIGVDYPRPIVNHAETSRLNIERMKQIYQQLSRYRGLCLLASVPSCVEDLSHPVAEPGSSQAGSISNTGPRALSSGPASPKRKLEAAEEPPGEELTKRARVTEMPTQEPASKDS
 | binds | Myc-CRY2 (in HEK293 cells) (protein, UniProt Q9R194 1-592) MAAAAVVAATVPAQSMGADGASSVHWFRKGLRLHDNPALLAAVRGARCVRCVYILDPWFAASSSVGINRWRFLLQSLEDLDTSLRKLNSRLFVVRGQPADVFPRLFKEWGVTRLTFEYDSEPFGKERDAAIMKMAKEAGVEVVTENSHTLYDLDRIIELNGQKPPLTYKRFQALISRMELPKKPAVAVSSQQMESCRAEIQENHDDTYGVPSLEELGFPTEGLGPAVWQGGETEALARLDKHLERKAWVANYERPRMNANSLLASPTGLSPYLRFGCLSCRLFYYRLWDLYKKVKRNSTPPLSLFGQLLWREFFYTAATNNPRFDRMEGNPICIQIPWDRNPEALAKWAEGKTGFPWIDAIMTQLRQEGWIHHLARHAVACFLTRGDLWVSWESGVRVFDELLLDADFSVNAGSWMWLSCSAFFQQFFHCYCPVGFGRRTDPSGDYIRRYLPKLKGFPSRYIYEPWNAPESVQKAAKCIIGVDYPRPIVNHAETSRLNIERMKQIYQQLSRYRGLCLLASVPSCVEDLSHPVAEPGSSQAGSISNTGPRALSSGPASPKRKLEAAEEPPGEELTKRARVTEMPTQEPASKDS
